In patent US20230330178A1, “USE OF POLYPEPTIDE IN DRUG FOR PREVENTING AND TREATING PNEUMONIA” (priority 2020, published 2023):
For at least one compound, name, drawing or mass did not settle the structure.

Tested on: models of pneumonia in rats induced by mixed bacteria solution of Staphylococcus aureus, Streptococcus pneumoniae, and Escherichia coli
Assay: Pathological test of lung tissue (HE) in rat pneumonia model
Type: in vivo, SD rats
Details: budesonide 0.05 mg/mL suspension (0.18 mg/kg) inhaled
Source text: Bacterial pneumonia is the most common pneumonia, is also one of the most common infectious diseases, and is caused by bacterial infection. Main pathogenic bacteria of the bacterial pneumonia include Streptococcus pneumoniae, Staphylococcus aureus, Escherichia coli, and the like, which pose a great threat to the health of children and the elderly. In this experiment, a mixed bacteria solution of Staphylococcus aureus, Streptococcus pneumoniae, and Escherichia coli was instilled into the trachea to induce models of pneumonia in rats. Pharmacodynamic effects of a peptide on pneumonia were evaluated by observing effects of the peptide inhaled through the nose and mouth on the models of pneumonia caused by mixed bacteria infection.
80 SD rats, SPF grade, half male and half female, were selected and randomly divided into 8 groups according to sex and body weight, including 6 rats in each of a blank control group and a model evaluation group, 8 rats in a blank administration group, and 12 rats in each of a model control group, an erythromycin group, a budesonide group, a low-dose polypeptide treatment group, and a high-dose polypeptide treatment group.
Animals in the blank administration group were not modeled, and inhaled a high-concentration polypeptide aerosol (0.48 mg/L) through nose and mouth every day. […]

Compound: CCCC1O[C@@H]2C[C@H]3[C@@H]4CCC5=CC(=O)C=C[C@]5(C)[C@H]4[C@@H](O)C[C@]3(C)[C@]2(C(=O)CO)O1 (some centres unmarked) [Budesonide, budesonide, reference compound]
- pathological changes of lungs compared with the model control group (D4): significantly alleviated
- lung tissue lesions (D8): alleviated significantly
